Targets include cat IgG-Fc (cat); swine IgG-Fc (swine); donkey IgG-Fc (donkey); horse IgG-Fc (horse); sheep IgG-Fc (sheep); goat IgG-Fc (goat).
Holding throughout (test): ELISA
Test [1] deals with chimpanzee IgG-Fc (chimpanzee).
The target in test [2] is syrian hamster IgG-Fc (syrian hamster).
Test [3] addresses guinea pig IgG-Fc (guinea pig).

The values that follow come from patent US20190177434A1.

These are yes or no findings as the source states them, for the method shown. Binding calls can cover weak binding; strength is not graded here. Sequences can lack the tags named with a protein.

B1: IgG-Fc-37 (VHH)
VHH: QVQLQESGGGLVQAGDSLRLSCAALGRTFSDYHMGWFRQAPGKERTFVAAITWNGGDTVFEDSVKGRFTISRDNGKKTVSLQMSSLQPEDTAVYYCAASLAVLTRPTAPVISSSYDYWGQGTQVTVSS
Consider B1, for which the binding result (with cat IgG-Fc (cat); with swine IgG-Fc (swine); in the test with donkey IgG-Fc (donkey); with horse IgG-Fc (horse); with sheep IgG-Fc (sheep); in [1]) was “binds” each time.

B2: IgG-Fc-01 (VHH)
VHH: QVQLQESGGGLVQPGGSLRLSCAASGGTSIRIGSINALAWYRQALGNQRELVAAVTEGGSTNYADFVKGRFTISRDNAQNMMYLQMNSLKPEDTAVYYCNADKVLYSRGGYYSVANDLWGQGTQVTVSS
For B2, the binding result (in the test with cat IgG-Fc (cat); in [2]; with sheep IgG-Fc (sheep); in the test with goat IgG-Fc (goat); in test [3]) was “no binding” throughout.

B3: IgG-Fc-47 (VHH)
VHH: QVQLQESGGGLVQAGDSLRLSCAASGRTLSSYAMGWFRQVPGKGREFVAAIRRSGGSTYYADSAEGRFTISRDNAKNTVYLQMNNLRPEDTAVYYCAAGDDLVDQYDYWGQGTQVTVSS
For B3, the binding result (with cat IgG-Fc (cat); with swine IgG-Fc (swine); in the test with donkey IgG-Fc (donkey); with horse IgG-Fc (horse); with sheep IgG-Fc (sheep); in test [1]) was “binds” each time.

B4: IgG-Fc-10 (VHH)
VHH: QVQLQESGGGLVQAGDSLRISCRASGLTVNDLYMGWFRQAPGKEREFVGRVTPGDNTDYTYYVDSVKGRFTISRDSAKNTVYLQMNSLKLEDTAVYLCAGRRFGSSEWDYWGQGTQVTVSS
B4: the binding entry (with cat IgG-Fc (cat); in test [2]; with sheep IgG-Fc (sheep); with goat IgG-Fc (goat); in test [3]) was “no binding” in each case.

B5: IgG-Fc-49 (VHH)
VHH: QVQLQESGGGLVQPGGSLRVSCAASGFTFSSYYMSWVRQAPGKGLEWVSSINTGASSTYYAESVKGRFTISRDNAKNTLYLQMNSLKPEDTARYFCVRGRSVMDYWGKGTLVTVSS
Regarding B5, the binding result (with cat IgG-Fc (cat); with swine IgG-Fc (swine); with donkey IgG-Fc (donkey); with horse IgG-Fc (horse); with sheep IgG-Fc (sheep); in [1]) was “binds” each time.

B6: IgG-Fc-28 (VHH)
VHH: QVQLQDSGGGLVQAGGSLRLSCAASGRTFSSGAMGWFRQTPGKEREFVAAINWSVGSTYYADSVKDRFTISRDKAKNTVYLQMNSLKPEDTAVYYCAADEADGPMAPYGFRGDYWGKGTLVTVSS
Take B6: the binding entry (in the test with cat IgG-Fc (cat); with swine IgG-Fc (swine); in [2]; with donkey IgG-Fc (donkey); with horse IgG-Fc (horse); with sheep IgG-Fc (sheep)) was “binds” in each case. Moreover, the binding result (with goat IgG-Fc (goat); in [1]; in test [3]) was “binds” throughout.

B7: IgG-Fc-29 (VHH)
VHH: QVQLQESGGGLVQAGGSLRLSCAASGRTFSSGAMGWFRQTPGKEREFVAAINWSVGSTYYADAVKDRFTISRDNAKNTVYLQMNSLKPEDTAVYYCAADEADGPMAPYGFRGDYWGKGTLVTVSS
For the molecule B7, the binding entry (in the test with cat IgG-Fc (cat); in the test with swine IgG-Fc (swine); in test [2]; with donkey IgG-Fc (donkey); with horse IgG-Fc (horse); in the test with sheep IgG-Fc (sheep)) was “binds” in each case. For the same molecule, the binding result (with goat IgG-Fc (goat); in [1]; in test [3]) was “binds” throughout.

B8: IgG-Fc-30 (VHH)
VHH: QVQLQESGGGLVQAGGSLRLSCAASGRTFSSGAMGWFRQTPGKEREFVAAINWNIGNTYYADSVKDRFTISRDSAKNTVYLQMNSLKPEDTAVYYCAANEADGPMAPYGFRGDYWGKGTLVTVSS
Consider B8, for which the binding entry (with cat IgG-Fc (cat); with swine IgG-Fc (swine); in [2]; with donkey IgG-Fc (donkey); with horse IgG-Fc (horse); in the test with sheep IgG-Fc (sheep)) was “binds” each time. Further, the binding result (in the test with goat IgG-Fc (goat); in [1]; in [3]) was “binds” throughout.

B9: IgG-Fc-16 (VHH)
VHH: QVQLQESGGGLVQAGGSLRLSCAASGRAVGNYIIGWFRQAPGKEREFVATTTRDGGSTFYADSVKGRFTISRDNAKNTVNLQMNSLEPEDTAVYYCAAKSWSVPLRPTSADFDSWGQGTQVTVSS
For B9, the binding entry (with cat IgG-Fc (cat); in the test with swine IgG-Fc (swine); in test [2]; with donkey IgG-Fc (donkey); with horse IgG-Fc (horse); in the test with sheep IgG-Fc (sheep)) was “binds” throughout. The binding entry (in the test with goat IgG-Fc (goat); in test [1]; in test [3]) was “binds” in each case.

B10: IgG-Fc-48 (VHH)
VHH: QVQLQESGGGLVQPGESLRLSCAASGIAFEVFNMGWYRQAPGKQRELVATITNSGATNYADSVKGRFTISRDNAKDTLYLQMNSLKPEDTAVYYCNAQNSWRNIWGQGTQVTVSS
As for B10, the binding entry (in the test with cat IgG-Fc (cat); with swine IgG-Fc (swine); in test [2]; with donkey IgG-Fc (donkey); with horse IgG-Fc (horse); in the test with sheep IgG-Fc (sheep)) was “binds” each time. Also, the binding result (with goat IgG-Fc (goat); in test [1]; in [3]) was “binds” each time.

B11: IgG-Fc-42 (VHH)
VHH: QVQLQESGGGLVQAGDSLRLSCAASGRTSWIYGMAWFRQAPGKEREFVAFISSSGSPFYADSLKGRVTVSRDNAKNTAYLVINSLKPEDTAVYSCATGPKTTAYYTADYHYWAQGTQVTVSS
Take B11: the binding entry (in the test with cat IgG-Fc (cat); with swine IgG-Fc (swine); in the test with donkey IgG-Fc (donkey); with horse IgG-Fc (horse); with sheep IgG-Fc (sheep); in test [1]) was “binds” throughout.
